Results are given in words; binding and its absence hold for the method and conditions named. Binding seen in cells or lysates may run through a third protein. Some binding calls cover weakened binding; strength is not graded here.
Target: T1, ASB6 (human (endogenous in CRC cell lines LoVo and HCT116)) (UniProt Q9NWX5)
T1 sequence: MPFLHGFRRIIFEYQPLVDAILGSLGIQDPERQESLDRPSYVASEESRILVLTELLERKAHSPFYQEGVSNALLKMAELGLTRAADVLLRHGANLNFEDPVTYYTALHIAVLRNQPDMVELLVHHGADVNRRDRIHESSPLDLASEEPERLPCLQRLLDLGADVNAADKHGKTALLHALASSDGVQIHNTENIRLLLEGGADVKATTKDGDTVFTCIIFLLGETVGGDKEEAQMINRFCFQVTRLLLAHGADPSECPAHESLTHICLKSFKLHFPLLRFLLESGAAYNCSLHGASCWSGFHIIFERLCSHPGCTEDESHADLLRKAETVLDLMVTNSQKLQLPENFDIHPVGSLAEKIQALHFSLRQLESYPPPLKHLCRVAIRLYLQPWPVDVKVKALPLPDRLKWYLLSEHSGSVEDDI
Experiment: co-IP; anti-ASB6 antibody (2 ug, sc-515649) or normal mouse IgG incubated with cell lysates at 4 °C overnight, then Protein A/G agarose; eluted proteins analysed by Western blotting; also done in circFNDC3B-overexpressing cells (association enhanced)

B1: Ring finger protein 41 (RNF41) (enzyme, UniProt Q9H4P4 1-317)
chain: MGYDVTRFQGDVDEDLICPICSGVLEEPVQAPHCEHAFCNACITQWFSQQQTCPVDRSVVTVAHLRPVPRIMRNMLSKLQIACDNAVFGCSAVVRLDNLMSHLSDCEHNPKRPVTCEQGCGLEMPKDELPNHNCIKHLRSVVQQQQTRIAELEKTSAEHKHQLAEQKRDIQLLKAYMRAIRSVNPNLQNLEETIEYNEILEWVNSLQPARVTRWGGMISTPDAVLQAVIKRSLVESGCPASIVNELIENAHERSWPQGLATLETRQMNRRYYENYVAKRIPGKQAVVVMACENQHMGDDMVQEPGLVMIFAHGVEEI
binding: binds
